In paper PMC7415817:
These are yes or no findings as the source states them, for the method shown. In cells and extracts the contact can be indirect. Some entries that bind do so weakly or less than the wild type.

Sequences of proteins named here, by UniProt entry; tags and fusion partners are left off.
UniProt Q15648: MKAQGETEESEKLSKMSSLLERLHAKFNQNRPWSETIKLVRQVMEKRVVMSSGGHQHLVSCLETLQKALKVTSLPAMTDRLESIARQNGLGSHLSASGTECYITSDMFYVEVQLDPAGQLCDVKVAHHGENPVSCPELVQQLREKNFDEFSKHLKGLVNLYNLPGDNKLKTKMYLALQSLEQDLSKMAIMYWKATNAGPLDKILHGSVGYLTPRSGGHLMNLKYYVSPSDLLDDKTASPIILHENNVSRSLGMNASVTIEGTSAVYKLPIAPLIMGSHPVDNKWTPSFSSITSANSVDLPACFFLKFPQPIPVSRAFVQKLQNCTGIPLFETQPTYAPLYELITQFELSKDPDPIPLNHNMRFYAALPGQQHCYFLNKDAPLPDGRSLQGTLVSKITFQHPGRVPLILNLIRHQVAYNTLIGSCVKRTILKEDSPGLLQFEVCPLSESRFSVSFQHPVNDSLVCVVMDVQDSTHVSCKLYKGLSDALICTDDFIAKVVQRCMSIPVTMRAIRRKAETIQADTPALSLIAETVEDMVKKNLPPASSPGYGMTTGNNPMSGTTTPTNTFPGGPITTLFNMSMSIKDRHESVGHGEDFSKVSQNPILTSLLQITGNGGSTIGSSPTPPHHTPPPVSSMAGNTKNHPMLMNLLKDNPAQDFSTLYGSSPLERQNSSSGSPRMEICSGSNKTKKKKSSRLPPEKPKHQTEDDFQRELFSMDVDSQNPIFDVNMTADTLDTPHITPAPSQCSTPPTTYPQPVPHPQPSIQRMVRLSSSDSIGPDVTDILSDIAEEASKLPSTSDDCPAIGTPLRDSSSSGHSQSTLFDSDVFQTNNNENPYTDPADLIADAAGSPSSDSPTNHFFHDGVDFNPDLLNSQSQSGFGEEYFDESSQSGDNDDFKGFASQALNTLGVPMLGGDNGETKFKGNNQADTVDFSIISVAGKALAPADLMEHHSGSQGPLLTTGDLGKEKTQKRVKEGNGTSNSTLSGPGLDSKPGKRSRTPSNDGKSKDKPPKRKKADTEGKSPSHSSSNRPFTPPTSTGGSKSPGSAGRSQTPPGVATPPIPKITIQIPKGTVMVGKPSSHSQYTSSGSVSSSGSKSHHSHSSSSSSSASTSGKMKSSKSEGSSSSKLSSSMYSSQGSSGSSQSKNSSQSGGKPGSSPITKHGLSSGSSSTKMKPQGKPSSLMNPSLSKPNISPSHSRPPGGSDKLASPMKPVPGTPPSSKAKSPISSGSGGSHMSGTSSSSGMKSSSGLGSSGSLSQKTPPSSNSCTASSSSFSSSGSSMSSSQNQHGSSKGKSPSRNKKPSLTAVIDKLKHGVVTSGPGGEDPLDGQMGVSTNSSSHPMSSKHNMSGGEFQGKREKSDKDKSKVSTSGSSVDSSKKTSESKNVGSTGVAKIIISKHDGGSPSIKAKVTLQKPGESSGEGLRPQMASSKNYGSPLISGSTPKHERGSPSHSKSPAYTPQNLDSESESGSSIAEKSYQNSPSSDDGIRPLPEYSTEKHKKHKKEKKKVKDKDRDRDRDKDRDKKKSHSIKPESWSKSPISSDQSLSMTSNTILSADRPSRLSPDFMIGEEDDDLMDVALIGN

T1: MED23 (human (endogenous in PC9 and A549)) (UniProt Q9ULK4)
T1 sequence: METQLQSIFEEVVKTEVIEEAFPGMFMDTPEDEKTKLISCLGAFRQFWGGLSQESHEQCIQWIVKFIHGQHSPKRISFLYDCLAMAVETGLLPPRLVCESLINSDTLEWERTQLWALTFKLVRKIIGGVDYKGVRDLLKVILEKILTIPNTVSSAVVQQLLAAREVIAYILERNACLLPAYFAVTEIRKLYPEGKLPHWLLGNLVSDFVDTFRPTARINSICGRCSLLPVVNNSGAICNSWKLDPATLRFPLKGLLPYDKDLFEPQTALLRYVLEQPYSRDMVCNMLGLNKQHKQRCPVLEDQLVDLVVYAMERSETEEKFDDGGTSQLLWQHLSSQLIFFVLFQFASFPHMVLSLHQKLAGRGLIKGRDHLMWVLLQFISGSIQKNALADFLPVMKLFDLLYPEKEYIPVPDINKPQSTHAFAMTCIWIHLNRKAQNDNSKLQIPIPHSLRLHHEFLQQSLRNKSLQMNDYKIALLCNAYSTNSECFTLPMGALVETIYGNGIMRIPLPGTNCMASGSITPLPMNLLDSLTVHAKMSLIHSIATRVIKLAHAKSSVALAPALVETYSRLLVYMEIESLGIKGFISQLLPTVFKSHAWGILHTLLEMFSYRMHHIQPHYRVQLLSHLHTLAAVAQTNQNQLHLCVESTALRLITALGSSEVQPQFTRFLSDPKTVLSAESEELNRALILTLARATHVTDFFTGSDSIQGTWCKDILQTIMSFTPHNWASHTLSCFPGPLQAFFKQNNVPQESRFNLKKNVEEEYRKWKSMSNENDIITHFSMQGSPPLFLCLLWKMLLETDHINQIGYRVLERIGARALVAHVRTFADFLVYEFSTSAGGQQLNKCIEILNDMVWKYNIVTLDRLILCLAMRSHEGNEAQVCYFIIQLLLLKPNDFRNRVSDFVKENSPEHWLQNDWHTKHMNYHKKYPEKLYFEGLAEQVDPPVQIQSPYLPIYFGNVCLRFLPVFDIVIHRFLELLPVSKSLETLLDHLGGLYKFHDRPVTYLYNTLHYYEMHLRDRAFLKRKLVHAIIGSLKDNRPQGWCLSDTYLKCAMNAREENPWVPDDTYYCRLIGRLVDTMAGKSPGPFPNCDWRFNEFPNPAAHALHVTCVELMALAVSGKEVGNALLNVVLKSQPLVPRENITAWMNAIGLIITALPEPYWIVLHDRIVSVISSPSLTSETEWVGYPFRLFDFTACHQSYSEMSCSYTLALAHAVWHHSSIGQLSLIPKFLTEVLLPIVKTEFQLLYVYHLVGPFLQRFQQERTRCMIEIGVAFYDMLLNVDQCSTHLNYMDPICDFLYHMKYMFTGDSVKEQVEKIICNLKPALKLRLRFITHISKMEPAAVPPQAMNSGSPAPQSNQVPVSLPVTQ

T2: MED4 (human (endogenous in PC9 and A549)) (UniProt Q9NPJ6)
T2 sequence: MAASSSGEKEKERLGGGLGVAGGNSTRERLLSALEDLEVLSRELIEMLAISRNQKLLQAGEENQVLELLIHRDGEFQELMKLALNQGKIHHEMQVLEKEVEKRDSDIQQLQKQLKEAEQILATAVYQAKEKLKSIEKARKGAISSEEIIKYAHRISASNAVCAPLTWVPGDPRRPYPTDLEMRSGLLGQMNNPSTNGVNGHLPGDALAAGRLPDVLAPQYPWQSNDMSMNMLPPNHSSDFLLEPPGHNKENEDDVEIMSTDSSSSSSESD

T3: MED8 (human (endogenous in PC9 and A549)) (UniProt Q96G25)
T3 sequence: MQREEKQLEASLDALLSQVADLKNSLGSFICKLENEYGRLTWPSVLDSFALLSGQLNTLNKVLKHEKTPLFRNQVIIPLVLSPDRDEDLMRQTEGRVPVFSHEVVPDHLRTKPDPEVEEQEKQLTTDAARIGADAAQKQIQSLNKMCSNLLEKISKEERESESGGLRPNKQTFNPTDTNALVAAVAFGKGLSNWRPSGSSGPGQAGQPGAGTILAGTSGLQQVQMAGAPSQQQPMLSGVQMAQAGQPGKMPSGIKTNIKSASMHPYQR


Experiments:
Test in all cases: co-IP; endogenous proteins in lysates of PC9 and A549 cells (20 mmol/L Tris-HCl pH 8.0, 10 mmol/L NaCl, 1 mmol/L EDTA, 0.5% NP-40); antibody or control IgG overnight at 4 °C, Protein G Dynabeads, Western blot; cells with or without silencing of MED13L
[1] = biological target: T1, MED23 (human (endogenous in PC9 and A549))
[2] = biological target: T2, MED4 (human (endogenous in PC9 and A549))
[3] = biological target: MED1 (human (endogenous in PC9 and A549)) (UniProt Q15648)
[4] = biological target: T3, MED8 (human (endogenous in PC9 and A549))
[5] = biological target: MED12 (human (endogenous in PC9 and A549)), Q93074; settings: remark: other sources report otherwise

binding [1]	binding [2]	binding [3]	binding [4]	binding [5]	Binder
binds	–	–	–	–	MED4 (protein, UniProt Q9NPJ6 1-270) MAASSSGEKEKERLGGGLGVAGGNSTRERLLSALEDLEVLSRELIEMLAISRNQKLLQAGEENQVLELLIHRDGEFQELMKLALNQGKIHHEMQVLEKEVEKRDSDIQQLQKQLKEAEQILATAVYQAKEKLKSIEKARKGAISSEEIIKYAHRISASNAVCAPLTWVPGDPRRPYPTDLEMRSGLLGQMNNPSTNGVNGHLPGDALAAGRLPDVLAPQYPWQSNDMSMNMLPPNHSSDFLLEPPGHNKENEDDVEIMSTDSSSSSSESD
binds	binds	binds	binds	–	MED6 (protein, UniProt O75586 1-246) MAAVDIRDNLLGISWVDSSWIPILNSGSVLDYFSERSNPFYDRTCNNEVVKMQRLTLEHLNQMVGIEYILLHAQEPILFIIRKQQRQSPAQVIPLADYYIIAGVIYQAPDLGSVINSRVLTAVHGIQSAFDEAMSYCRYHPSKGYWWHFKDHEEQDKVRPKAKRKEEPSSIFQRQRVDALLLDLRQKFPPKFVQLKPGEKPVPVDQTKKEAEPIPETVKPEEKETTKNVQQTVSAKGPPEKRMRLQ
binds	binds	binds	–	–	MED8 (protein, UniProt Q96G25 1-268) MQREEKQLEASLDALLSQVADLKNSLGSFICKLENEYGRLTWPSVLDSFALLSGQLNTLNKVLKHEKTPLFRNQVIIPLVLSPDRDEDLMRQTEGRVPVFSHEVVPDHLRTKPDPEVEEQEKQLTTDAARIGADAAQKQIQSLNKMCSNLLEKISKEERESESGGLRPNKQTFNPTDTNALVAAVAFGKGLSNWRPSGSSGPGQAGQPGAGTILAGTSGLQQVQMAGAPSQQQPMLSGVQMAQAGQPGKMPSGIKTNIKSASMHPYQR
–	–	–	–	binds	cyclin-dependent kinase 8, P49336 1-464 (protein) MDYDFKVKLSSERERVEDLFEYEGCKVGRGTYGHVYKAKRKDGKDDKDYALKQIEGTGISMSACREIALLRELKHPNVISLQKVFLSHADRKVWLLFDYAEHDLWHIIKFHRASKANKKPVQLPRGMVKSLLYQILDGIHYLHANWVLHRDLKPANILVMGEGPERGRVKIADMGFARLFNSPLKPLADLDPVVVTFWYRAPELLLGARHYTKAIDIWAIGCIFAELLTSEPIFHCRQEDIKTSNPYHHDQLDRIFNVMGFPADKDWEDIKKMPEHSTLMKDFRRNTYTNCSLIKYMEKHKVKPDSKAFHLLQKLLTMDPIKRITSEQAMQDPYFLEDPLPTSDVFAGCQIPYPKREFLTEEEPDDKGDKKNQQQQQGNNHTNGTGHPGNQDSSHTQGPPLKKVRVVPPTTTSGGLIMTSDYQRSNPHAAYPNPGPSTSQPQSSMGYSATSQQPPQYSHQTHRY
